The results in this text go back to patent publication US7029846B2 (University of Medicine and Dentistry of New Jersey, priority 2000, dated 2006).

This data set is described as follows: general procedure: Fmoc solid-phase peptide synthesis; standard FastMoc protocols. The settings on record: conjugation step.

Consider “Acetyl-Tyr-Tat peptide-fluorescein conjugate”, for which the conjugation yield entry is given as “˜80%”.
